This is an account of results in publication doi:10.1101/2022.09.04.506508.

In the assay the target is EGFP::HPO-11 (C. elegans). Nature of the assay: co-IP.

No constants are given. Whether binding was seen depends on the method and setting. Binding seen in cells or lysates may run through a third protein. Binding can be weak; no strength is given. Sequences can lack the tags named with a protein.

B1: SMG-2::V5::6xHis (protein, UniProt O76512 1-1069)
chain: MDDSDDEYSRSHGETLTFVDPEDDGVSIGNTQDSQFAYEQFSVPTQSSQATDLLPGGTDGTTNDLPFHDVEDDESDSEKSLTEEQHEQKLPEHACRYCGISDPLCVAKCTVCRKWFCNSNDGTSGGHIVHHMVRSQHKEAYTHKDSPCGDTQLECYRCGSKNVFNLGFIPGKKDQVVVIICRTPCASIAFQNDDNWSPEDWKSVIAEKQLLSWIVNVPSEEQVARARKITATQAVRMEELWRDHPEATVDDLNKPGLDREPDHVQLRYVDAHHYSKVFRPLVAIEAEYDRRVKESASQAVGTVRWEQGLRQSVLAFFHLPQFADGVMKLAKGDELRLKHSQTVDGSEWTKIGSVFKIPDNHGDEVGIEIRGAVDKSVMESRIMFTVDVVWNATTFERQYKALAALLNDSKAISPYLYQKLLGHPAEEMMLKFDLPRRLSVAGLPELNSSQMQAVKQVLTRPLSLIQGPPGTGKTVVSATIVYHLVQKTEGNVLVCSPSNIAVDHLAEKIHKTGLKVVRLCARSREHSETTVPYLTLQHQLKVMGGAELQKLIQLKDEAGELEFKDDLRYMQLKRVKEHELLAAADVICCTCSSAADARLSKIRTRTVLIDESTQATEPEILVSIMRGVRQLVLVGDHCQLGPVVICKKAAIAGLSQSLFERLVLLGIRPFRLQVQYRMHPVLSEFPSNVFYDGSLQNGVTENDRHMTGVDWHWPKPNKPAFFWHCSGSEELSASGTSFLNRTEAANVEKLVSKLIKAGVQPHQIGVITSYEGQRSFIVNYMHTQGTLNSKLYENVEIASVDAFQGREKDYIIVTCVRSNDILGIGFLSDPRRLNVAITRAKYGLVLVGNAKVLARHDLWHELINHYKSKEMLYEGPINALKPLNLALPKATIRTKNNIAGNANRFGIKRMQYTFNEYKSNDPSQPRLPPTYSNSQNLLSMSKLAQTFNKNVPIPAHMMDPNVYAAARNQKDRRRGDQRRPPPQAEAAMDLSQGMMSQQSQQYPPQGASSQSQYLLDGASSLSGWSQSQTTTTTTRHHHHRQNRNSQQQMSQDMDDIQQKMDDLLFSQDC
As to B1, the binding result is given as “binds”.
